Reference: PubChem BioAssay AID504793 (Drosophila RNAi Screening Center, 2011)
Test: 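Knock-downs allowing continued mitosis even though DNA is damaged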 (primary screen). Cells: Drosophila S2R+ cells. Reagent: long dsRNA against Drosophila genes, about 0.25 µg dsRNA per well. Timing: 4 days of dsRNA, then 4 hours of drug before read-out. Conditions: doxorubicin 0.5 µM for 4 hours to cause double-strand breaks, in cells also given a low, harmless dose of dsRNA against nbs to sensitise the assay. Detection: 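Mitotic index as the number of phospho-histone H3-positive cells in each well following doxorubicin, given as raw counts without normalisation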. Scale: mitotic cells: higher = more cells in mitosis, weaker G2 arrest. Active means: 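Genes are called active only when high mitotic counts were reproduced with independent dsRNAs and mitosis was checked for delay without damage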. Calls: active = confirmed in follow-up tests; inactive = not confirmed.
The deposit covers about 23,000 reagents; shown is a random part of those that have a named target and a result. In the full data, 62 (0.27%) are marked active. 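Calls come from follow-up tests whose scores are not deposited, so confirmed genes may have low counts here; counts are not normalised per plate.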 Raw values are not corrected between plates.

Depletion of Cka [DRSC03476] gave: inactive.
Knock-down of Cka [DRSC22858] gave: mitotic cells, replicate 1 = 8; inactive.
Depletion of CG9231 [DRSC11054] came out at: mitotic cells, replicate 1 = 4; inactive.
Depletion of mRpL22 [DRSC19915] gave: mitotic cells, replicate 1 = 5; inactive.
For mRpL22 [DRSC26399] the deposit lists mitotic cells, replicate 1 = 4; inactive.
After knock-down of CG17196 [DRSC15189], the record shows mitotic cells, replicate 1 = 7; inactive.
With knock-down of CG13836 (retired record) [DRSC14686], the record shows mitotic cells, replicate 1 = 5; inactive.
For CG13836 (retired record) [DRSC28063], the values are mitotic cells, replicate 1 = 5; inactive.
Depletion of CG31347 [DRSC21582] resulted in: mitotic cells, replicate 1 = 6; inactive.
CG16743 [DRSC24981] showed mitotic cells, replicate 1 = 5; inactive.
With knock-down of Octbeta1R [DRSC16134], the screen gave mitotic cells, replicate 1 = 15; inactive.
Silencing of Octbeta1R [DRSC30030] resulted in: mitotic cells, replicate 1 = 12; inactive.
After knock-down of CG30178 [DRSC21911], the screen gave mitotic cells, replicate 1 = 11; inactive.
Blm [DRSC16911] showed mitotic cells, replicate 1 = 14; inactive.
Ugt35B1 [DRSC16893] showed mitotic cells, replicate 1 = 3; inactive.
Ugt35B1 [DRSC27518] scored mitotic cells, replicate 1 = 12; inactive.
Pkc53E [DRSC07510] gave mitotic cells, replicate 1 = 4; inactive.
Depletion of hbs [DRSC07627] gave: mitotic cells, replicate 1 = 4; inactive.
Silencing of Ugt50B3 [DRSC04778] came out at: mitotic cells, replicate 1 = 3; inactive.
After knock-down of Ugt50B3 [DRSC21419] the results were mitotic cells, replicate 1 = 6; inactive.

In a second layout: 3 of the entries above.
Cka [DRSC22858]
- mitotic cells, replicate 1: 8
- call: inactive

CG9231 [DRSC11054]
- mitotic cells, replicate 1: 4
- call: inactive

mRpL22 [DRSC19915]
- mitotic cells, replicate 1: 5
- call: inactive

Continued.
Against Cpr31A [DRSC02779], the values are mitotic cells, replicate 1 = 5; inactive.
With knock-down of Cpr31A [DRSC28742], the record shows mitotic cells, replicate 1 = 6; inactive.
CG32829 [DRSC00961] scored mitotic cells, replicate 1 = 10; inactive.
With knock-down of CG32829 [DRSC22805], the screen gave mitotic cells, replicate 1 = 7; inactive.
With knock-down of CG30340 [DRSC05167], the record shows mitotic cells, replicate 1 = 6; inactive.
Against CG17294 [DRSC02596], the entry reads mitotic cells, replicate 1 = 10; inactive.
Against Sas-4 [DRSC12505] the deposit lists mitotic cells, replicate 1 = 2; inactive.
For rt [DRSC11391], the values are mitotic cells, replicate 1 = 5; inactive.
CG17378 [DRSC02616] showed mitotic cells, replicate 1 = 9; inactive.
For CG13121 (retired record) [DRSC02217], the entry reads mitotic cells, replicate 1 = 9; inactive.
Knock-down of AsnRS-m [DRSC07010] came out at: mitotic cells, replicate 1 = 6; inactive.
Against CG15322 [DRSC20680], the values are mitotic cells, replicate 1 = 2; inactive.
For CG15322 [DRSC23023], the entry reads mitotic cells, replicate 1 = 8; inactive.
hrg [DRSC07502] scored mitotic cells, replicate 1 = 9; inactive.
